No constants are given. Whether binding was seen depends on the method and setting. Binding seen in cells or lysates may run through a third protein. Some results given as binding are weak or reduced against the parent protein; the word gives no strength. Tags and fused reporters may be left off the sequences shown.

Binding data for two molecules are collected here from PMC4393284.

Test [1] has as its target T1, HA-PKCζ (zeta isoform of Protein Kinase C, atypical PKC) (UniProt P09217).
T1 sequence: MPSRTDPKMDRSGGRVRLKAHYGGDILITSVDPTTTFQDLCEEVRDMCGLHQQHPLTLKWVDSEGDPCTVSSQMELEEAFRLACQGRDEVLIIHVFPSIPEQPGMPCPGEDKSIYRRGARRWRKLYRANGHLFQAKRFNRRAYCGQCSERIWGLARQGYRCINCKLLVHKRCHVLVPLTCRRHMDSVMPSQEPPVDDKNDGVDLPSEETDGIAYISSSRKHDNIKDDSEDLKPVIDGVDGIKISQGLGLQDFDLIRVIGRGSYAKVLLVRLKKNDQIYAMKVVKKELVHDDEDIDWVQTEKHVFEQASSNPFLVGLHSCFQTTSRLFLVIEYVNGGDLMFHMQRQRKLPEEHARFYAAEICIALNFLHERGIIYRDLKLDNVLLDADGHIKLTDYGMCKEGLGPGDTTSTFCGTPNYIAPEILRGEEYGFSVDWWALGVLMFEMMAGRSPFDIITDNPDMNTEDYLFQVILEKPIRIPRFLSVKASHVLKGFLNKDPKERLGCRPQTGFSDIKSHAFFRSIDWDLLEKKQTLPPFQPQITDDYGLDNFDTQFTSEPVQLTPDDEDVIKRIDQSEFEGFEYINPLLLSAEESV
The experiment in a line: co-IP; HA-PKCζ and FLAG-HDAC6 co-transfected into HEK cells; Triton Lysis Buffer (50mM Tris pH 7.5, 150mM NaCl, 0.5% Triton X-100); 500μg lysate with 3μg tag antibody, agarose beads overnight at 4°C; reciprocal immunoprecipitations, Western blot with tag-specific antibodies. A general note: Immunoblotting shows a protein as a band on a membrane.

Test [2] deals with T2, FLAG-HDAC6 (histone deacetylase 6) (UniProt Q9Z2V5).
T2 sequence: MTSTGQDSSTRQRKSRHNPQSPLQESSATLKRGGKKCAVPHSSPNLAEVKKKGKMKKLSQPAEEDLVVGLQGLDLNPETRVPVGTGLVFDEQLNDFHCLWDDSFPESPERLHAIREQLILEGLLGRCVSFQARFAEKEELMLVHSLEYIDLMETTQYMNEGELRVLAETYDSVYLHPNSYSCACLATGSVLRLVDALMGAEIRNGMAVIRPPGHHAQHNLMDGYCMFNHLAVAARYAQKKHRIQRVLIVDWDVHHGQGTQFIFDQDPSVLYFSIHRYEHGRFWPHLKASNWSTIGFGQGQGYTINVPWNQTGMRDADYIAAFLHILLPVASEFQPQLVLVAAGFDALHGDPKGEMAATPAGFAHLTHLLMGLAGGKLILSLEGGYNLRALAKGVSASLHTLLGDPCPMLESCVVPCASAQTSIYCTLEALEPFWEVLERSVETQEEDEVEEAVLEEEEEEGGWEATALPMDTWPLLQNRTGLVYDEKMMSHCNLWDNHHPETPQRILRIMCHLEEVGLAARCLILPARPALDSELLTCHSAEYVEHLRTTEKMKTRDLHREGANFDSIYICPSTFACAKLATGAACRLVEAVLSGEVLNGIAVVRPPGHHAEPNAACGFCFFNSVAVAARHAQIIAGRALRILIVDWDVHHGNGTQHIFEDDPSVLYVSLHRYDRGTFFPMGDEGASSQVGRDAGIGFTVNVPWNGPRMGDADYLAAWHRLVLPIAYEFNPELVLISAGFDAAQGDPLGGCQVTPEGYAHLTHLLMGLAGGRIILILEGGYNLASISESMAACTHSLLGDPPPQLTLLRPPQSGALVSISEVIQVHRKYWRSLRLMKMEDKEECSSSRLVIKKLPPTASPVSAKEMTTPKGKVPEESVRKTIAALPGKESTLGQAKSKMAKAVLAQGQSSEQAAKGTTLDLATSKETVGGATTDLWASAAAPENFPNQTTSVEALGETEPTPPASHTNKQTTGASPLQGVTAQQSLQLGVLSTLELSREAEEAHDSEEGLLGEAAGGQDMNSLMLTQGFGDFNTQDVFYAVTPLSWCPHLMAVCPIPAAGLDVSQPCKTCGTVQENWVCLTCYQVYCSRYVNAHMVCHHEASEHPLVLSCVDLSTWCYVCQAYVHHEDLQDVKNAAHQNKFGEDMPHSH
The test is described as above.

B1: FLAG-HDAC6 (histone deacetylase 6) (enzyme, UniProt Q9Z2V5 1-1149)
chain: T2 sequence
Consider B1, for which the binding result in test [1] was “binds”.

B2: HA-PKCζ (zeta isoform of Protein Kinase C, atypical PKC) (enzyme, UniProt P09217 1-592)
chain: T1 sequence
For B2, the binding entry in test [2] is given as “binds”.
